# Primary screen of a compound library

Measurements from “University of Dundee, Small-Polar-MMV Screening Library” (2021), ChEMBL document CHEMBL3988442.

T. brucei: 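Whole-parasite assay of Trypanosoma brucei over 72 hours; the read-out is not stated. Concentration: 30 µM. Higher reads as stronger inhibition (inferred: compounds with an IC50 in retests scored well above the rest). Values scatter widely below zero; nearly all retest evidence comes from the higher of the two concentrations used. Of about 64,000 compounds tested this way, about 940 (1.5%) reached 50% or more in at least one test.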
Toxoplasma: 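Assay of Toxoplasma gondii numbers, read through their beta-galactosidase reporter with a colour substrate. Tested at 10 µM. Higher reads as fewer parasites (inferred from which compounds were picked for retests). Size under these conditions: about 67,000 compounds, about 260 of them at 50% or above in at least one test.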

The filed quantity is “Percent Effect” (%). The controls that fix the scale are not given in the record; negative values are as filed. Compounds were drawn at random from those tested, without regard to their results.

Cc1ccc2c(c1)CN(C(=O)c1cccnc1)C(CN(C)C)CO2.Cl (centres undefined) gave T. brucei: -3.741%; Toxoplasma: -25.17%. With CNC(=O)N1Cc2cc(F)ccc2C2(CCN(C)CC2)C1.Cl the screen gave T. brucei: -44.45%; Toxoplasma: 0.9043%. With CC(C)(C)c1nnc(CN2CCN(C(=O)N3CCCCC3)CC2)o1 the screen gave T. brucei: -22.61%; Toxoplasma: -1.77%. Result for CCCc1nnsc1C(=O)NCC1CCN(S(C)(=O)=O)CC1 was T. brucei: -55.79%; Toxoplasma: 4.817%. With COCC(=O)N1CCc2ccc(=O)n(Cc3csc(C)n3)c2CC1.O=C(O)C(F)(F)F the screen gave Toxoplasma: -26.38%. For CN1CCc2c(C#N)c(NCc3ccncc3)n3cnnc3c2C1 the result was T. brucei: -8.507%; Toxoplasma: -13.59%. With O=C(Cc1cccs1)N1Cc2nc(COCC3CC3)oc2C1 the screen gave T. brucei: -77.66%; Toxoplasma: -5.627%.

CCc1ccc(CN2CCC3(CC2)CNC(=O)CO3)o1.O=C(O)C(F)(F)F read T. brucei: -0.7315%; Toxoplasma: 6.043%. For COCCN(Cc1ccccn1)C(=O)CC1OCCc2ccccc21 (centres undefined) the result was Toxoplasma: -0.6238%. O=C(O)C(F)(F)F.O=C(O)C(F)(F)F.[H][C@@]12OCCN(Cc3ccncc3)[C@@]1([H])CC[C@H]2OCC1CCCC1 gave Toxoplasma: -1.883%. CN(Cc1ccccc1)S(=O)(=O)N1C[C@@H](C(=O)O)[C@H](C2CC2)C1 read T. brucei: -31.95%; Toxoplasma: -17.71%. CC(=O)Nc1nc(C(=O)N2CCCC(n3ccnc3)C2)cs1 (centres undefined) read T. brucei: -38.89%; Toxoplasma: -2.574%. Result for CC(C)CNC(=O)CCN1C(=O)CCc2cc(F)ccc21 was T. brucei: 1.512%; Toxoplasma: 5.595%. Cc1ccc2cc(CN(C)Cc3ccncn3)c(=O)[nH]c2c1 gave Toxoplasma: -36.88%.

Cc1nn(C)c(C)c1C1CCCN1CC(=O)Nc1ccncc1 (centres undefined) read T. brucei: -26.8%; Toxoplasma: -3.963%. Cc1cccc(C(C(=O)NCC2(O)CCCCC2)N(C)C)c1 (centres undefined) gave T. brucei: -9.468%; Toxoplasma: -2.308%. CC(C)c1nncn1CCNC(=O)c1ccc(Cl)cc1O read T. brucei: -4.094%; Toxoplasma: -15.38%. For O=C(O)c1cccc(CN2CCCC(Cc3ccn[nH]3)C2)c1 (centres undefined) the result was T. brucei: 10.03%; Toxoplasma: -1.527%. CN1CCCN(C(=O)c2nc3c(o2)CN(S(C)(=O)=O)C3)CC1 gave T. brucei: -45.16%; Toxoplasma: 6.947%. With N#CCCN(Cc1cccnc1)C(=O)c1cccc(-n2cnnn2)c1 the screen gave T. brucei: -26.4%; Toxoplasma: 3.055%. For Cn1ncc2ccc(C3CCCN(C(=O)Cc4cccs4)C3)nc21 (centres undefined) the result was T. brucei: 18.27%; Toxoplasma: -9.771%.

Result for Cc1cnn(C2CCCN(C(=O)c3sccc3C#N)C2)c1 (centres undefined) was T. brucei: -22.4%; Toxoplasma: -5.188%. With c1ccc(-c2cnc(CN3CCCC3Cn3cccn3)o2)cc1 (centres undefined) the screen gave T. brucei: 32.71%; Toxoplasma: -14.72%. CCn1cnnc1CNC(=O)N1CCOC(c2ccc(F)cc2)C1 (centres undefined) read T. brucei: -23.44%; Toxoplasma: 5.829%. With CN1CCN2CCN(C(=O)c3cc4ncc(CCO)cn4n3)CC2C1 (centres undefined) the screen gave T. brucei: 9.307%; Toxoplasma: -3.805%. With Cc1noc(-c2ccnc(Oc3ccc(CN4CCCC4)cc3F)c2)n1 the screen gave T. brucei: 26.49%; Toxoplasma: -41.53%. For O=c1[nH]c(-c2cccnc2)nc2c1CCN(S(=O)(=O)N1CCCC1)C2 the result was T. brucei: -17.6%; Toxoplasma: 11.24%. For COc1ccc(NC(=O)N(C)Cc2ccco2)cn1 the result was T. brucei: 1.665%; Toxoplasma: -8.343%.

CSCCc1c(-c2ccccc2)ncn1CC(C)(C)N1CCOCC1 read T. brucei: -12.34%; Toxoplasma: -2.403%. With CCc1n[nH]c(C2CN(C(=O)c3nc(C)ncc3Cl)CCO2)n1 (centres undefined) the screen gave T. brucei: 5.567%; Toxoplasma: -3.003%. With O=S1(=O)NCC2(CCN(c3ncc(F)cn3)CC2)COc2ccccc21 the screen gave T. brucei: -59.98%; Toxoplasma: -3.614%. Cc1nn(C)c(C)c1OCC(=O)N1CCCCC1 read T. brucei: -6.743%; Toxoplasma: 10.71%. O=C(O)C(F)(F)F.O=C(O)C(F)(F)F.O=C(O)c1c(-c2cccnc2)ncc2c1CCN(Cc1ccccn1)C2 read T. brucei: -16.63%; Toxoplasma: 5.291%. Result for COc1ccccc1N1CCC(CNCc2cccc(OC)c2OC)C1 (centres undefined) was T. brucei: 106.6%; Toxoplasma: -0.2872%. CCO[C@@H]1CO[C@@]2(CCCN(Cc3scnc3C)C2)C1.O=C(O)C(F)(F)F gave T. brucei: 3.003%; Toxoplasma: 8.054%.

CNC(=O)CN(C)C(=O)c1cc(Cl)c(Cl)n1C gave T. brucei: -63.45%; Toxoplasma: 3.733%. Result for N#CCCn1cnc2c(Br)cc(Br)cc2c1=O was T. brucei: -20.2%; Toxoplasma: 6.715%. Result for Cc1nc(CN2CC(CO)Oc3ccccc32)sc1C (centres undefined) was T. brucei: -30.81%; Toxoplasma: -0.641%. Result for O=C(Cc1ccc2c(c1)CCC2)NCCNc1cnccn1 was T. brucei: 22.61%; Toxoplasma: 5.166%. With CC(C)(N)CN1CCC(c2nnc(CN3CCCC3)n2C2CC2)CC1 the screen gave T. brucei: 28.46%; Toxoplasma: -0.6608%. CCCOC(=O)N1CCCC(c2nnc(CN3CCOCC3)n2C)C1 (centres undefined) gave T. brucei: -34.94%; Toxoplasma: 2.324%. COc1cc2c(cc1OC)CCN(C(=O)Cn1nc(C)cc1C)CC2 read T. brucei: 10.67%; Toxoplasma: -3.106%.

For reference, 3 entries once more:

With CC(C)c1nncn1CCNC(=O)c1ccc(Cl)cc1O the screen gave T. brucei: -4.094%; Toxoplasma: -15.38%.
With CC(=O)Nc1nc(C(=O)N2CCCC(n3ccnc3)C2)cs1 (centres undefined) the screen gave T. brucei: -38.89%; Toxoplasma: -2.574%.
With Cc1nc(CN2CC(CO)Oc3ccccc32)sc1C (centres undefined) the screen gave T. brucei: -30.81%; Toxoplasma: -0.641%.